US20120201757A1
These are yes or no findings as the source states them, for the method shown. Some entries that bind do so weakly or less than the wild type.

The chains behind the UniProt entries cited, without tags or fusion partners. Where a name states a change or a piece, a line headed by the entry shows the natural chain unless it says otherwise. Residues count along the entry.
UniProt Q07954: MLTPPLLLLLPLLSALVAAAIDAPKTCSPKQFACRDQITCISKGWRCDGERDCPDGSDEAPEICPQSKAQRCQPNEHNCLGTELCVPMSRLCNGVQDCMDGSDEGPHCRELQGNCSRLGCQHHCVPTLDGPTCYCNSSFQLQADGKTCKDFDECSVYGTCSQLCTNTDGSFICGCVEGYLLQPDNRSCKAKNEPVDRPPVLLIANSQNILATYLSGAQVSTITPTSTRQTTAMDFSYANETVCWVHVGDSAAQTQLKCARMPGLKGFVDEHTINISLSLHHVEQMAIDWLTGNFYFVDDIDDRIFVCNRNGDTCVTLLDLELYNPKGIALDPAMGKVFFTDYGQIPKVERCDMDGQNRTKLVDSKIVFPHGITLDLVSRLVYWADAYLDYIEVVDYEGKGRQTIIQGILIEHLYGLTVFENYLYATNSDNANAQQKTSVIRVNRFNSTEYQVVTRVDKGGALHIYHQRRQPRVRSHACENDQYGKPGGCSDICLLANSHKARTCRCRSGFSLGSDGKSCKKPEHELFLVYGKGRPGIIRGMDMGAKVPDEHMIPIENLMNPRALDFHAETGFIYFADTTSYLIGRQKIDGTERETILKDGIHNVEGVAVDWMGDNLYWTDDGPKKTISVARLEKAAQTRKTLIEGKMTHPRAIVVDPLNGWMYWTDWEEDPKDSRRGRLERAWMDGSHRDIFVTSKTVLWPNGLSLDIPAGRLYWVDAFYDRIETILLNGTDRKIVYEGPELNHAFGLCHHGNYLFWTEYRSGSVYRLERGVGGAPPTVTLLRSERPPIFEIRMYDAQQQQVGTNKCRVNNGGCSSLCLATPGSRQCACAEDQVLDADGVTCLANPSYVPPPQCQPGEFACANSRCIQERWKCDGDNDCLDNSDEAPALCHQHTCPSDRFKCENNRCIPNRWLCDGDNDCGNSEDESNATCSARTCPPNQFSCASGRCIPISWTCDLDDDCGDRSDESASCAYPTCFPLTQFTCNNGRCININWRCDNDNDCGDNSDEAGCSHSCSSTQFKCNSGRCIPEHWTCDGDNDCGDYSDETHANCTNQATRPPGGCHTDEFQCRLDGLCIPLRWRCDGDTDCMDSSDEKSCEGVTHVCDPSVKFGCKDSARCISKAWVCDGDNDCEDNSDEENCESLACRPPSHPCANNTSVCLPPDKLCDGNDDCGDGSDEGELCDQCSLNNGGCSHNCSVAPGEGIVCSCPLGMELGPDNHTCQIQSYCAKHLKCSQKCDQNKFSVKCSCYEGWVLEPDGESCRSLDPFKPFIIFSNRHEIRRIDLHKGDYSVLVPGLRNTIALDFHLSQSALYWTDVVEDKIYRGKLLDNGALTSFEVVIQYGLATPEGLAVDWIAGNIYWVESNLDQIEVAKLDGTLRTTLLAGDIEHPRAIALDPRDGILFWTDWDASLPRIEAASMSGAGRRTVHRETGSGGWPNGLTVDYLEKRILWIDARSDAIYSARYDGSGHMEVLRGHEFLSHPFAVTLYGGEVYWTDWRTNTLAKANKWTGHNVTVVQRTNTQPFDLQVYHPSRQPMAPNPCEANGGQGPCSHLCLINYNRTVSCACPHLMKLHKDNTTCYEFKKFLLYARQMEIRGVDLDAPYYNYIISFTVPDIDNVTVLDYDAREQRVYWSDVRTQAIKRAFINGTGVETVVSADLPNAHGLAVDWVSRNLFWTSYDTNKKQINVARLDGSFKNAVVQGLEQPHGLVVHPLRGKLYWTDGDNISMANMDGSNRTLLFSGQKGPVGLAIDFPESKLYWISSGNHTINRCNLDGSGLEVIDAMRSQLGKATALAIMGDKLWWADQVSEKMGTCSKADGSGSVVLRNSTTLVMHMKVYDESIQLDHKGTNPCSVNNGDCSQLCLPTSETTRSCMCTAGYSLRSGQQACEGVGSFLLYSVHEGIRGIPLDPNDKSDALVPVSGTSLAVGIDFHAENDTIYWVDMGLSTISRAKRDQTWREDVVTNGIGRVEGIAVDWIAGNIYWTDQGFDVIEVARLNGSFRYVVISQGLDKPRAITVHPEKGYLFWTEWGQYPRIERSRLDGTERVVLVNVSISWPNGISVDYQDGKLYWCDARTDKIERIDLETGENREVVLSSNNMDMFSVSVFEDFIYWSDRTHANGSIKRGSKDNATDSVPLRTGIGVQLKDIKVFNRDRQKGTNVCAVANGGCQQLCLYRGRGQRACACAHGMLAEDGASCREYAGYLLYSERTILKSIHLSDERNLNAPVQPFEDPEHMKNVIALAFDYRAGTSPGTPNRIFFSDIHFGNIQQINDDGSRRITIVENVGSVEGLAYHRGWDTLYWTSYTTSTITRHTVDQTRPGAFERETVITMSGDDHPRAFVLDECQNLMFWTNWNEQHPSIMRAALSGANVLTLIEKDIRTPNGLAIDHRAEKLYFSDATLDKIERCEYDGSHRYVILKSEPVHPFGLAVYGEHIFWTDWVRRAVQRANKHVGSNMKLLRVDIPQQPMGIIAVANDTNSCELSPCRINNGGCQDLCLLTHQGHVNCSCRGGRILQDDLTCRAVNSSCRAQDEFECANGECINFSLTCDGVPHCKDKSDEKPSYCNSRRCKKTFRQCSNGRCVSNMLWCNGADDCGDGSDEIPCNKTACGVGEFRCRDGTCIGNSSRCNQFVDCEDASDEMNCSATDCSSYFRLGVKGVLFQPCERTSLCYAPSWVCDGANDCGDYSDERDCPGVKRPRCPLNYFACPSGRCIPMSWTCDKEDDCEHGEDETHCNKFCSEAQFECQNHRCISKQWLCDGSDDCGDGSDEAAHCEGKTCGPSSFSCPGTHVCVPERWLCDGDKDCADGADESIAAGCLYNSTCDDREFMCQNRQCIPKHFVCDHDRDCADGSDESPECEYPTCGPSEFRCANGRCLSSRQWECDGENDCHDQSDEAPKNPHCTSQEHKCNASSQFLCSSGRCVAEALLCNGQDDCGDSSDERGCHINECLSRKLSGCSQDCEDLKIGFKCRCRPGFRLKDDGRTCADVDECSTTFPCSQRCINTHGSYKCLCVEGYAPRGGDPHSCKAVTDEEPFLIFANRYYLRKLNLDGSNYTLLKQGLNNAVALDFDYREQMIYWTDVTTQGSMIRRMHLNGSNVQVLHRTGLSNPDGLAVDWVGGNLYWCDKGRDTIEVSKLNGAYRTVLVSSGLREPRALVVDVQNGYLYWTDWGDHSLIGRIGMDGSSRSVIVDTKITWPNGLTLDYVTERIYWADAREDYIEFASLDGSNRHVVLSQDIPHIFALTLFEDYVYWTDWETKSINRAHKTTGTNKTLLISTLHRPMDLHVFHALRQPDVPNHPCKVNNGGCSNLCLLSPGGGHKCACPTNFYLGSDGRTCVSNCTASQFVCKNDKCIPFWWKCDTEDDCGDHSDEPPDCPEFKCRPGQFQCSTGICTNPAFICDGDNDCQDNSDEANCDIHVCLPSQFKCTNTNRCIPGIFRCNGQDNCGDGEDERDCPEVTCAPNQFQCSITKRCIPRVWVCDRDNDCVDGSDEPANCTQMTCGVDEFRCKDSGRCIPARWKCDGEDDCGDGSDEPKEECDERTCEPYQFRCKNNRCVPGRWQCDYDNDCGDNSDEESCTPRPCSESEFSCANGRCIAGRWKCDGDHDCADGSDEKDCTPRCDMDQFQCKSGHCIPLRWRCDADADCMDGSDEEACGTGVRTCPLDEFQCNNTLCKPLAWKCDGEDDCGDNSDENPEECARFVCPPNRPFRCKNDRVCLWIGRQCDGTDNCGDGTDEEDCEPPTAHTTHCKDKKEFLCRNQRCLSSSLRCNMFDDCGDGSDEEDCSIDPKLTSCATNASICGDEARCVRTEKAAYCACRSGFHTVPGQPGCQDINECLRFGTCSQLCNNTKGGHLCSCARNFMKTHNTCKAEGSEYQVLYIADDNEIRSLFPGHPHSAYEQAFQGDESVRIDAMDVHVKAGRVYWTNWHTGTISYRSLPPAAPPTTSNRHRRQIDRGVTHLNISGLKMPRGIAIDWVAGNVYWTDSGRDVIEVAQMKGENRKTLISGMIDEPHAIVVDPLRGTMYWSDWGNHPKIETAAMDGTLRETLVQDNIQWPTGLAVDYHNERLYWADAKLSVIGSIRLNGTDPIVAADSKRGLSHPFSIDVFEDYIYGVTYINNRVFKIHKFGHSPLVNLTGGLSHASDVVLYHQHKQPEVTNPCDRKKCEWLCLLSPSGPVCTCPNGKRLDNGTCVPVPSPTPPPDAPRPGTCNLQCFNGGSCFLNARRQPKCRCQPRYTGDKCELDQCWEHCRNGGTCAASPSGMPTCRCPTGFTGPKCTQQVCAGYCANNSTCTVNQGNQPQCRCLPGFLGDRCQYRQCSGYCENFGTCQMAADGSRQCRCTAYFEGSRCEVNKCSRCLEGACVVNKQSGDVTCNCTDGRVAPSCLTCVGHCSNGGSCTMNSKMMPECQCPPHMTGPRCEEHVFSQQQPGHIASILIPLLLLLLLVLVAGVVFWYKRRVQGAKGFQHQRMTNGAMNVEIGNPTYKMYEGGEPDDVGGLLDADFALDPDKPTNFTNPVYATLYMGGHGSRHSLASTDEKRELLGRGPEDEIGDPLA
UniProt P14780, residues 20-707: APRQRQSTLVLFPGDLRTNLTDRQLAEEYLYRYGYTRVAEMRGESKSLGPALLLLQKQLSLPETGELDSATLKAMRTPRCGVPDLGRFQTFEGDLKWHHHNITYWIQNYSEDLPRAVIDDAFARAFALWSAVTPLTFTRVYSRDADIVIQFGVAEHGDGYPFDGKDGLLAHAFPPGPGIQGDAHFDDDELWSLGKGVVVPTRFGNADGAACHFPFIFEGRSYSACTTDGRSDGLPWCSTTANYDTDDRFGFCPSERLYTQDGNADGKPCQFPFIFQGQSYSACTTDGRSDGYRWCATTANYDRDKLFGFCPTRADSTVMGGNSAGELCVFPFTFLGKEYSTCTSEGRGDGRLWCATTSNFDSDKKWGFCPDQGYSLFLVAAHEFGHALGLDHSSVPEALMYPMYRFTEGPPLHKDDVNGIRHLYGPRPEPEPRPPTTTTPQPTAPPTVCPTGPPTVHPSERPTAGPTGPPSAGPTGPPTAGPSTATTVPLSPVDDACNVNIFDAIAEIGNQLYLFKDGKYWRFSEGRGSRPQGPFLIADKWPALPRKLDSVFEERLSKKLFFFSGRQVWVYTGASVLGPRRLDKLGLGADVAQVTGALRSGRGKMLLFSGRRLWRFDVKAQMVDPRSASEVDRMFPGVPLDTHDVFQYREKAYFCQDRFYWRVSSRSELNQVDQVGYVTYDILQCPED

Biological target: GAR-LRPIV (human) (UniProt Q07954)
Test: plate binding assay, Abs (450nm), ligand titrated 0-200 nM on immobilized GAR-LRPIV

binding: binds
Substance: MMP9 (from UniProt P14780 20-707) (enzyme)
